According to the supplement of paper PMC10849652:
This is one part of the list.

By UniProt entry, the sequences of proteins in these tests, tags left out. Where a name states a change or a piece, a line headed by the entry shows the natural chain unless it says otherwise.
UniProt P05114: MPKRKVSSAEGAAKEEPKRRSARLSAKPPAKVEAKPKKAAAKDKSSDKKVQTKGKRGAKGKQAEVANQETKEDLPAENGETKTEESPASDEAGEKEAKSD
UniProt Q53GQ0: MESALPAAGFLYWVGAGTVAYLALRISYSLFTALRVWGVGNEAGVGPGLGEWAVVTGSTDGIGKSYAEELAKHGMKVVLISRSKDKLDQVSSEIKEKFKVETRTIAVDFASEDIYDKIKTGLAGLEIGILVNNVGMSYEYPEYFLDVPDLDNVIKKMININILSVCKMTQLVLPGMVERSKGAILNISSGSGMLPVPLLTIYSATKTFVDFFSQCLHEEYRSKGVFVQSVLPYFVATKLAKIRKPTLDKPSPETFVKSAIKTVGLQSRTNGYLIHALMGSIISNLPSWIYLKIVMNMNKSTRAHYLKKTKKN
UniProt P55795: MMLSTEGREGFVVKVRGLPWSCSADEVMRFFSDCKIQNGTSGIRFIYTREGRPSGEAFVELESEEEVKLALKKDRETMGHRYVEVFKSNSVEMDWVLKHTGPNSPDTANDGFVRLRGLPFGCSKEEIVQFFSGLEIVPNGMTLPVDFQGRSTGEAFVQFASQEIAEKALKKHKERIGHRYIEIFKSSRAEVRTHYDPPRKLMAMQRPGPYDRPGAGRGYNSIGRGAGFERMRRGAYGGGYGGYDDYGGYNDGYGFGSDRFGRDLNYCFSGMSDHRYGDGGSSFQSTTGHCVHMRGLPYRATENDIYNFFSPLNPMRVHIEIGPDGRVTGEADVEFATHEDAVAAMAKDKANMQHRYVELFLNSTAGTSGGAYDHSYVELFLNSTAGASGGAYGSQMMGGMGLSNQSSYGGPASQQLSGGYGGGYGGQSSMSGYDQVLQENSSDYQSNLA
UniProt Q53FT3: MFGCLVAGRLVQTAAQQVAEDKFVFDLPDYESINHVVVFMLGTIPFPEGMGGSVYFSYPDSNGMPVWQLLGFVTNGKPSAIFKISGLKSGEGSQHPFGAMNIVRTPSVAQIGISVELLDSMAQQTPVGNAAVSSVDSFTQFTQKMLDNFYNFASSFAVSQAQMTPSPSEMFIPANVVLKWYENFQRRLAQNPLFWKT
UniProt Q9BQS7: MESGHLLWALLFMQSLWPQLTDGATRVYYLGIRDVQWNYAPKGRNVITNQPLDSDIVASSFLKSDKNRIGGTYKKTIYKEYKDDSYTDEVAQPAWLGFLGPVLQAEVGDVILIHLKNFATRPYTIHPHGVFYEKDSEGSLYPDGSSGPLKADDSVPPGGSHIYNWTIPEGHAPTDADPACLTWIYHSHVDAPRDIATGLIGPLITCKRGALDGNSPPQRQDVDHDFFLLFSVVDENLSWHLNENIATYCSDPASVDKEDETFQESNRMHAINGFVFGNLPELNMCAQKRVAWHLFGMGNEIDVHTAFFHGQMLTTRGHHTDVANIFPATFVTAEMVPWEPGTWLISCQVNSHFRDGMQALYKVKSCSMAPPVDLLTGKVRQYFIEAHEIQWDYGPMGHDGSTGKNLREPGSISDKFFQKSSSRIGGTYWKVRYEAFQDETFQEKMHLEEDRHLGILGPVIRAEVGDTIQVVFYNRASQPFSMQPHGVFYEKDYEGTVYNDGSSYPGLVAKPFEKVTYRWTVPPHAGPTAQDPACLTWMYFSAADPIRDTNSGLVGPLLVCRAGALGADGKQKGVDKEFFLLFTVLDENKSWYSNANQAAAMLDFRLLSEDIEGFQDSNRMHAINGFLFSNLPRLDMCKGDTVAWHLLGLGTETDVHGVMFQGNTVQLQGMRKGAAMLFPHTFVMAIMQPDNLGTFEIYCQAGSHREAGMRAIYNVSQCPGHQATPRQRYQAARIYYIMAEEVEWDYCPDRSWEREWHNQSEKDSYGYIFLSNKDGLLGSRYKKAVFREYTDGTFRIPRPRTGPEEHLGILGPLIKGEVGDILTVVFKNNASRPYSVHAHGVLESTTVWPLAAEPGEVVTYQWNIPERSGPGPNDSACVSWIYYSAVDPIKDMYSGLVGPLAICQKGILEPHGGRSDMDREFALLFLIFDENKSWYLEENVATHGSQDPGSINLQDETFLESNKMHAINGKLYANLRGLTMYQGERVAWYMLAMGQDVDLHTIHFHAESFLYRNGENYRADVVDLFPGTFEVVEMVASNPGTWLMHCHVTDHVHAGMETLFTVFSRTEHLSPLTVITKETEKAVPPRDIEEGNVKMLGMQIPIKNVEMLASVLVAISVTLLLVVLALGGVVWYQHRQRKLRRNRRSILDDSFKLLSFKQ
UniProt P82970: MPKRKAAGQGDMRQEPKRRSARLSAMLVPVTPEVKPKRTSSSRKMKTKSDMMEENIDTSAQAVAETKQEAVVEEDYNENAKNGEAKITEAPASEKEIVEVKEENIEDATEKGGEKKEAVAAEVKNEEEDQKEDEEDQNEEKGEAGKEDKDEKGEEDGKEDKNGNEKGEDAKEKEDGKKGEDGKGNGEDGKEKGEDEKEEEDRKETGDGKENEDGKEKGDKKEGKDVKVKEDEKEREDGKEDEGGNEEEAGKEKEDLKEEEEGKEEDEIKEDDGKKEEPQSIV
UniProt Q92902: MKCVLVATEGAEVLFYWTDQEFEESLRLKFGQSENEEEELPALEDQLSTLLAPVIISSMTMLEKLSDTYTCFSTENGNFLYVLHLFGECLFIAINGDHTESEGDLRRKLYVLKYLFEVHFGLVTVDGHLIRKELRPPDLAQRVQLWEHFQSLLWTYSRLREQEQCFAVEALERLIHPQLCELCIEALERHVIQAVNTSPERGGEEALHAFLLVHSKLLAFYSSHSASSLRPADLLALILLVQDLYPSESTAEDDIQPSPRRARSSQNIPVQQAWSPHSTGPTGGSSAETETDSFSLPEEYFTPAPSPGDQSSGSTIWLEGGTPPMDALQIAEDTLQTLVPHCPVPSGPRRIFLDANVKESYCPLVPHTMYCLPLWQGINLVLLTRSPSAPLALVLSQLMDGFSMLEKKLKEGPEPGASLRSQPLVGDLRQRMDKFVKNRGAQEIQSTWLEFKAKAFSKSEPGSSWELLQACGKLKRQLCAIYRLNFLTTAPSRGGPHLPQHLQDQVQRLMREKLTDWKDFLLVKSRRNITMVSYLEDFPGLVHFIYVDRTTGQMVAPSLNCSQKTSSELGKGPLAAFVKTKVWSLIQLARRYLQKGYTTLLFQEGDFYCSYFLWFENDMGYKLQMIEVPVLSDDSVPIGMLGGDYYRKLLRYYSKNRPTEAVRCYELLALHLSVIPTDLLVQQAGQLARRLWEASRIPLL
UniProt Q58FF6, whole entry, looked up: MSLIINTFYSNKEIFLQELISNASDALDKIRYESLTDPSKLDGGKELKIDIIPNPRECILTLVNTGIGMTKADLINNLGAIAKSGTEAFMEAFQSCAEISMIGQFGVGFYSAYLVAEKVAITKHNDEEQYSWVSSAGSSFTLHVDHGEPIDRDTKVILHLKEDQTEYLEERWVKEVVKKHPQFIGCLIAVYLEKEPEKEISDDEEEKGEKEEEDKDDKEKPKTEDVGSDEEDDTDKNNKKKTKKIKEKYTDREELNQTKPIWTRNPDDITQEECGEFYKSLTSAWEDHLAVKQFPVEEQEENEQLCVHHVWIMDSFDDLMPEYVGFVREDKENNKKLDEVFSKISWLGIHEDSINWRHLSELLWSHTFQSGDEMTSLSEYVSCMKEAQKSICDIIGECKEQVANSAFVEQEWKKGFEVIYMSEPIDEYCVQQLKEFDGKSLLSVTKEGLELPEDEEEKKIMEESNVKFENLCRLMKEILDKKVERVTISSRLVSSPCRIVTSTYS
UniProt O75330: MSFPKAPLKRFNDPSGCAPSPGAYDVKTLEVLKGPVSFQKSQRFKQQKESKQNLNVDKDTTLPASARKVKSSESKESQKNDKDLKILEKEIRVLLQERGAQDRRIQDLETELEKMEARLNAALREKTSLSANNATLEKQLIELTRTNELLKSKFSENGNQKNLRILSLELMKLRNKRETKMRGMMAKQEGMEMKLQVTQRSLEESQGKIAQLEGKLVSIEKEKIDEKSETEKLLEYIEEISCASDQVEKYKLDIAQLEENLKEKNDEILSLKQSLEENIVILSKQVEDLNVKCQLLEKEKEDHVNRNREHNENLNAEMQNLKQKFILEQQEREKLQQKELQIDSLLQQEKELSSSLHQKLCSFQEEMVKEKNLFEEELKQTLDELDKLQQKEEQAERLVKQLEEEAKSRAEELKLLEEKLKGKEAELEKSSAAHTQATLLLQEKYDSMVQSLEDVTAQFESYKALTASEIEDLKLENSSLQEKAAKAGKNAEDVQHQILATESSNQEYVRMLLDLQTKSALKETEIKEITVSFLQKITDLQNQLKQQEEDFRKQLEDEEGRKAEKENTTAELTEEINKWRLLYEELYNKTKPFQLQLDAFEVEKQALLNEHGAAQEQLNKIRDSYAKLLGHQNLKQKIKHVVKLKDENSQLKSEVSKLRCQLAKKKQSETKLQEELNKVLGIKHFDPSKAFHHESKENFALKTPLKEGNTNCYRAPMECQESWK
UniProt Q6AI08: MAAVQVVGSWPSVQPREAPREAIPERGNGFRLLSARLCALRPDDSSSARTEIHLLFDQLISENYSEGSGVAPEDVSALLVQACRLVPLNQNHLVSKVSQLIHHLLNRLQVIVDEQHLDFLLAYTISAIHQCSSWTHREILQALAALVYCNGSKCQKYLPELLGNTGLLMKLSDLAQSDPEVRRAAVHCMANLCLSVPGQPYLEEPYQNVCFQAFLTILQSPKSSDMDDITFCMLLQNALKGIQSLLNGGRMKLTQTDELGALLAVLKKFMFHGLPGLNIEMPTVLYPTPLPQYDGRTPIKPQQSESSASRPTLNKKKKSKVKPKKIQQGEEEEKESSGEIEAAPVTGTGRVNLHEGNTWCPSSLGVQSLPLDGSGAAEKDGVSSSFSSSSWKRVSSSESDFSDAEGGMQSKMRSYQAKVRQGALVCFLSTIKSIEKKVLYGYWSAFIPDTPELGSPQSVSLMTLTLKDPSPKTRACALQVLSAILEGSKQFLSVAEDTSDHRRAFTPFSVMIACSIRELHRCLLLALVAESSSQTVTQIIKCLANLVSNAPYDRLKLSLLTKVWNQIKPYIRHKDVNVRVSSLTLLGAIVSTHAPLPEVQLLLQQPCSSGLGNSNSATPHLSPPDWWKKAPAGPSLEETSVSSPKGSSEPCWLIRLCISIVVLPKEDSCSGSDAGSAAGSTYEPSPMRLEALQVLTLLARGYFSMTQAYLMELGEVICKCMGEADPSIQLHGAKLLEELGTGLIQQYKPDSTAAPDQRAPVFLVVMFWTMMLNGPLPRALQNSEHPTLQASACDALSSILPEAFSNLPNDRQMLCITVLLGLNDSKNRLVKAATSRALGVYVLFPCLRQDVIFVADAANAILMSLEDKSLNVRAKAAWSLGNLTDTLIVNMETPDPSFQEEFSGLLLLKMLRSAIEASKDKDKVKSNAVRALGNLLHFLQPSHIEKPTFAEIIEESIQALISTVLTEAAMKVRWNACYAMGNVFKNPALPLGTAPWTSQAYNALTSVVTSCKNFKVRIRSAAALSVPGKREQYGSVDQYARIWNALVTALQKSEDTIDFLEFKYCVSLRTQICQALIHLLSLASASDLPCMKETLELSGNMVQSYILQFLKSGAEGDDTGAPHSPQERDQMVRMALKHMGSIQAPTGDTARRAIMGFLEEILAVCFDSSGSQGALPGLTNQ
UniProt P34931, whole entry, looked up: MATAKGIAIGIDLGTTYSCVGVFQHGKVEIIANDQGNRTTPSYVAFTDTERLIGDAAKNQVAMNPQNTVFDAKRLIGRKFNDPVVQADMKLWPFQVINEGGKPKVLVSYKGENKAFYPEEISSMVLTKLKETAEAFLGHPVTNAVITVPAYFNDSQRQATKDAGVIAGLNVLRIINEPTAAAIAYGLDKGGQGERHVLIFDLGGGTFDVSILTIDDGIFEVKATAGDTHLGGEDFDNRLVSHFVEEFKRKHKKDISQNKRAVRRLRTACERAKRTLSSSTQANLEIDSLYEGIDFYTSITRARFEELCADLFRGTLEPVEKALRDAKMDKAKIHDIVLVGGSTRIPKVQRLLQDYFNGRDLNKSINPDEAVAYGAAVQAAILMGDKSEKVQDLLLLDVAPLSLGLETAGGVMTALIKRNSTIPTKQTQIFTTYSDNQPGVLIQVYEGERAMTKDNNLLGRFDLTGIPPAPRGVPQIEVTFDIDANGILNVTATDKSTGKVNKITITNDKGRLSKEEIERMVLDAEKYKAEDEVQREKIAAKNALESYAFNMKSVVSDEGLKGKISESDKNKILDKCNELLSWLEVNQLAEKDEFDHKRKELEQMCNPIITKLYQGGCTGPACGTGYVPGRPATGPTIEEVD
UniProt Q92506: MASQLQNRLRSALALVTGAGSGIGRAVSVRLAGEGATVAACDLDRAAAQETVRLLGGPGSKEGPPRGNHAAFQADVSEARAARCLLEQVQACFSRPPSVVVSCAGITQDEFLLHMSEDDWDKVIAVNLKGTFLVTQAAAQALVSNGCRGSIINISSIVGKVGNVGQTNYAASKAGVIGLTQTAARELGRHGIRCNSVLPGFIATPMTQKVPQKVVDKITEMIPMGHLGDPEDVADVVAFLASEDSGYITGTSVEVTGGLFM

Tests used:
Test in all cases: log2 fold change, soluble protein after heating vs DMSO (PISA); higher = thermal stabilisation; K562 lysate, 10 uM; active = over 0.2 and 3.5 SD of the protein, either way, in both replicates (recomputed)
[1] = compound: C1=CC=C(C=C1)[C@H](COC2=CC3=C(C=C2)NC(=O)N3)NC(=O)C4=CC=CN(C4=O)CC5=CC(=C(C=C5)F)F
How it was run: (§1)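 To prepare the extract, K562 pellets were dounce-homogenised in PBS pH 7.4 with 1 mM MgCl2, giving crude material at 1 mg/mL protein. This was treated with 10 μM compound for 30 min, then heated in aliquots for 3 min over 48°C-58°C before pooling and addition of NP-40 to 0.5% at 4°C. Centrifugation at 21,000xg for 90 min left soluble protein in the supernatant, which TMTpro 16plex LC-MS/MS quantified with equalised channel sums. Results are log-two fold changes in thermal stability compared with solvent controls, from duplicates.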

[2] = compound: CC1=C(SC2=C1C(=N[C@H](C3=NN=C(N32)C)CC(=O)N)C4=CC=C(C=C4)Cl)C
How it was run: as §1

[3] = compound: CC1=C2C(=CC=C1)N=C(N(C2=O)C3=CC=CC=C3C)CN4C=NC5=C(N=CN=C54)N
How it was run: as §1

[4] = compound: Cc1sc2c(c1C)C(c1ccc(Cl)cc1)=N[C@@H](CC(=O)OC(C)(C)C)c1nnc(C)n1-2
How it was run: as §1

[5] = compound: c1ccc([C@@H]2C[C@H]2NC2CCNCC2)cc1
How it was run: as §1

Measured: log2 fold change

HSD17B10 (UniProt Q99714)
inactive: [1] -0.006 | [2] 0.062 | [3] 0.03 | [4] 0.022 | [5] 0.003

HNRNPA0 (UniProt Q13151)
inactive: [1] 0 | [2] 0.05 | [3] 0.013 | [4] 0.058 | [5] 0.006

HNRNPU (UniProt Q00839)
inactive: [1] -0.012 | [2] -0.01 | [3] -0.019 | [4] 0.012 | [5] 0.068

HMGN1 (UniProt P05114)
inactive: [1] -0.022 | [2] 0.005 | [3] -0.047 | [4] -0.045 | [5] 0.03

HSD17B12 (UniProt Q53GQ0)
inactive: [1] -0.127 | [2] -0.006 | [3] 0.059 | [4] 0.031 | [5] -0.108

HNRNPH2 (UniProt P55795)
inactive: [1] 0.036 | [2] -0.007 | [3] 0 | [4] 0.105 | [5] -0.011

HIKESHI (UniProt Q53FT3)
inactive: [1] -0.101 | [2] 0.036 | [3] 0.006 | [4] -0.023 | [5] 0.044

HEXA (UniProt P06865)
inactive: [1] -0.006 | [2] 0.033 | [3] 0.025 | [4] 0.022 | [5] 0.001

HEPH isoform 3 (UniProt Q9BQS7)
inactive: [1] -0.06 | [2] 0.083 | [3] 0.022 | [4] 0.002 | [5] -0.037

HSD17B11 (UniProt Q8NBQ5)
inactive: [1] 0.087 | [2] 0.016 | [3] 0.005 | [4] -0.025 | [5] -0.009

HS1BP3 (UniProt Q53T59)
inactive: [1] 0.018 | [2] -0.03 | [3] -0.073 | [4] 0.004 | [5] -0.053

HMGN5 (UniProt P82970)
inactive: [1] 0.033 | [2] 0.05 | [3] -0.008 | [4] -0.026 | [5] 0.083

HNRNPR (UniProt O43390)
inactive: [1] -0.017 | [2] 0.048 | [3] 0.091 | [4] 0.001 | [5] 0.04

HPS1 (UniProt Q92902)
inactive: [1] 0.019 | [2] -0.063 | [3] 0.062 | [4] -0.062 | [5] -0.042

HSP90AB4P (UniProt Q58FF6)
inactive: [1] -0.254 | [2] 0.113 | [3] -0.024 | [4] -0.196 | [5] 0.034

HSPA5 (UniProt P11021)
inactive: [1] -0.001 | [2] 0.002 | [3] -0.006 | [4] 0.017 | [5] 0.031

HSCB (UniProt Q8IWL3)
inactive: [1] -0.036 | [2] 0.241 | [3] 0.045 | [4] -0.037 | [5] 0.003

HSF1 (UniProt Q00613)
inactive: [1] -0.032 | [2] -0.013 | [3] 0.005 | [4] 0.008 | [5] 0.07

HIST2H3A (UniProt Q71DI3)
inactive: [1] 0.003 | [2] 0.03 | [3] -0.04 | [4] 0.185 | [5] 0.047

HMMR isoform 3 (UniProt O75330)
inactive: [1] -0.01 | [2] -0.001 | [3] -0.002 | [4] 0.006 | [5] -0.001

HMGB2 (UniProt P26583)
inactive: [1] 0.022 | [2] -0.069 | [3] -0.03 | [4] 0.036 | [5] 0.161

Reprinted from the entries so far (two entries):
HNRNPU (UniProt Q00839)
inactive: [1] -0.012 | [2] -0.01 | [3] -0.019 | [4] 0.012 | [5] 0.068

HMGN1 (UniProt P05114)
inactive: [1] -0.022 | [2] 0.005 | [3] -0.047 | [4] -0.045 | [5] 0.03

Following part:

HEATR6 (UniProt Q6AI08)
inactive: [1] -0.039 | [2] -0.086 | [3] 0.05 | [4] 0.008 | [5] 0.014

HSPA1L (UniProt P34931)
inactive: [1] -0.032 | [2] 0.152 | [3] -0.066 | [4] -0.084 | [5] 0.006

HNRNPH1 (UniProt P31943)
inactive: [1] 0.038 | [2] -0.015 | [3] 0.007 | [4] 0.009 | [5] 0.017

HSD17B8 (UniProt Q92506)
inactive: [1] 0 | [2] -0.023 | [3] -0.016 | [4] -0.026 | [5] -0.026

HSPA4L (UniProt O95757)
inactive: [1] 0 | [2] -0.008 | [3] 0.02 | [4] -0.02 | [5] -0.01

HELQ (UniProt Q8TDG4)
inactive: [1] 0.033 | [2] 0.028 | [3] 0.005 | [4] -0.004 | [5] -0.074
